# Measured values published in US8367682B2, “Pyrimidine derivatives and their use as pesticides” (Novartis AG, priority 2006, dated 2013).
# Some results were stated once for a whole list of compounds, not compound by compound. For at least one compound, name, drawing or mass did not settle the structure.
# Legend:
# Dermanyssus gallinae = test: Activity in vitro against Dermanyssus gallinae (chicken red mite), HTS; settings: at 200 ppm; female mites, 10 minutes contact, 5 days incubation
# Ctenocephalides felis = test: Activity in vitro against Ctenocephalides felis (cat flea), HTS, artificial blood feeding; settings: at 100 ppm; adult fleas fed on treated blood for 24 hours
# Protocol: 3. Activity in Vitro Against Ctenocephalides felis (Cat Flea)—HTS
# A mixed adult population of fleas is placed in a suitably formatted 96-well plate allowing fleas to access and feed on treated blood via an artificial feeding system. Each compound is tested by serial dilution in order to determine its MED. Fleas are fed on treated blood for 24 hours, after which the compound's effect is recorded. Insecticidal activity is determined on the basis of the number of dead fleas recovered from the feeding system.
# Rhipicephalus sanguineus = test: Activity in vitro against Rhipicephalus sanguineus (dog ticks), HTS; settings: at 640 ppm; adult ticks, 10 minutes contact, 7 days incubation
# Protocol: 2. Activity in Vitro Against Rhipicephalus sanguineus (Dog Ticks)—HTS
# A clean adult tick population is used to seed a suitably formatted 96-well plate containing the test substances to be evaluated for antiparasitic activity. Each compound is tested by serial dilution in order to determine its MED. Ticks are left in contact with the test compound for 10 minutes and are then incubated at 28° C. and 80% relative humidity (RH) for 7 days, during which the test compound's effect is monitored. Acaricidal activity is confirmed if and when adult ticks are dead.
SMILES,efficacy in the HTS (Dermanyssus gallinae),insecticidal efficacy in the HTS (Ctenocephalides felis),efficacy in the HTS (Rhipicephalus sanguineus)
Nc1c(Oc2ccc(F)c(C(F)(F)F)c2)nc(-c2ccsc2)nc1Oc1ccc(F)c(C(F)(F)F)c1 [Compound 2.6],more than 60%,more than 60%,–
COCc1cccc(-c2nc(Oc3ccc(F)c(C(F)(F)F)c3)c(N)c(Oc3ccc(F)c(C(F)(F)F)c3)n2)c1 [Compound 1.27],more than 60%,–,more than 60%
Nc1c(Oc2ccc(F)c(C(F)(F)F)c2)nc(-c2ccoc2)nc1Oc1ccc(F)c(C(F)(F)F)c1 [Compound 2.4],more than 60%,more than 60%,more than 60%
COc1ccc(-c2nc(Oc3ccc(F)c(C(F)(F)F)c3)c(N)c(Oc3ccc(F)c(C(F)(F)F)c3)n2)cc1 [Compound 1.2],–,–,more than 60%
Nc1c(Oc2ccc(F)c(C(F)(F)F)c2)nc(-c2ccc3cc[nH]c3c2)nc1Oc1ccc(F)c(C(F)(F)F)c1 [Compound 2.3],more than 60%,more than 60%,more than 60%
Nc1c(Oc2ccc(F)c(C(F)(F)F)c2)nc(-c2ccc(Cl)cc2)nc1Oc1ccc(F)c(C(F)(F)F)c1 [Compound 1.3],more than 60%,–,–
"CN(C)c1cccc(-c2nc(Oc3ccc(F)c(C(F)(F)F)c3)c(N)c(Oc3ccc(F)c(C(F)(F)F)c3)n2)c1 [Compound 1.34, 2-(3-Dimethylamino-phenyl)-4,6-bis-(4-fluoro-3-trifluoromethyl-phenoxy)-pyrimidin-5-ylamine]",more than 60%,more than 60%,more than 60%
Cn1ccc2ccc(-c3nc(Oc4ccc(F)c(C(F)(F)F)c4)c(N)c(Oc4ccc(F)c(C(F)(F)F)c4)n3)cc21 [Compound 2.2],more than 60%,more than 60%,more than 60%
Cc1cc(-c2nc(Oc3ccc(F)c(C(F)(F)F)c3)c(N)c(Oc3ccc(F)c(C(F)(F)F)c3)n2)ccc1F [Compound 1.23],more than 60%,–,more than 60%
Nc1c(Oc2ccc(F)c(C(F)(F)F)c2)nc(-c2cccc(OC(F)(F)F)c2)nc1Oc1ccc(F)c(C(F)(F)F)c1 [Compound 1.15],more than 60%,–,–
Cn1cc(-c2nc(Oc3ccc(F)c(C(F)(F)F)c3)c(N)c(Oc3ccc(F)c(C(F)(F)F)c3)n2)cn1 [Compound 2.12],more than 60%,–,–
Nc1c(Oc2ccc(F)c(C(F)(F)F)c2)nc(-c2cccc(F)c2)nc1Oc1ccc(F)c(C(F)(F)F)c1 [Compound 1.13],more than 60%,–,more than 60%
Nc1c(Oc2ccc(F)c(C(F)(F)F)c2)nc(-c2csc3ccccc23)nc1Oc1ccc(F)c(C(F)(F)F)c1 [Compound 2.7],more than 60%,more than 60%,more than 60%
CC(O)c1cccc(-c2nc(Oc3ccc(F)c(C(F)(F)F)c3)c(N)c(Oc3ccc(F)c(C(F)(F)F)c3)n2)c1 (stereo not shown) [Compound 1.18],–,more than 60%,more than 60%
CC(=O)c1cccc(-c2nc(Oc3ccc(F)c(C(F)(F)F)c3)c(N)c(Oc3ccc(F)c(C(F)(F)F)c3)n2)c1 [Compound 1.14],more than 60%,–,more than 60%
CSc1cccc(-c2nc(Oc3ccc(F)c(C(F)(F)F)c3)c(N)c(Oc3ccc(F)c(C(F)(F)F)c3)n2)c1 [Compound 1.11],more than 60%,more than 60%,more than 60%
COc1cc(OC)cc(-c2nc(Oc3ccc(F)c(C(F)(F)F)c3)c(N)c(Oc3ccc(F)c(C(F)(F)F)c3)n2)c1 [Compound 1.12],more than 60%,–,more than 60%
CC(C)c1cccc(-c2nc(Oc3ccc(F)c(C(F)(F)F)c3)c(N)c(Oc3ccc(F)c(C(F)(F)F)c3)n2)c1 [Compound 1.10],more than 60%,–,more than 60%
Cc1cccc(-c2nc(Oc3ccc(F)c(C(F)(F)F)c3)c(N)c(Oc3ccc(F)c(C(F)(F)F)c3)n2)c1 [Compound 1.9],more than 60%,–,more than 60%
CS(=O)(=O)Nc1cccc(-c2nc(Oc3ccc(F)c(C(F)(F)F)c3)c(N)c(Oc3ccc(F)c(C(F)(F)F)c3)n2)c1 [Compound 1.21],–,more than 60%,–
Nc1c(Oc2ccc(F)c(C(F)(F)F)c2)nc(-c2cccc(Cl)c2)nc1Oc1ccc(F)c(C(F)(F)F)c1 [Compound 1.4],more than 60%,–,more than 60%
